According to paper PMC8292550, “Molecular characterization of direct interactions between MPP1 and flotillins” (Scientific Reports, 2021):
These are yes or no findings as the source states them, for the method shown. Some binding calls cover weakened binding; strength is not graded here. Tags and fused reporters may be left off the sequences shown.

Assays:
[1] = target: T1, recombinant His-tagged flotillin 1 (UniProt O75955-1 1-427); test: ELISA; competitive ELISA with bacterially expressed recombinant proteins; MPP1-Mut4 against the full-length MPP1-flotillin 1 interaction, compared to MPP1-Mut1 (Fig. S6); both purified
T1 construct: flotillin 1; the discussion speaks of bacterially expressed proteins; also called FL1
T1 sequence (looked up): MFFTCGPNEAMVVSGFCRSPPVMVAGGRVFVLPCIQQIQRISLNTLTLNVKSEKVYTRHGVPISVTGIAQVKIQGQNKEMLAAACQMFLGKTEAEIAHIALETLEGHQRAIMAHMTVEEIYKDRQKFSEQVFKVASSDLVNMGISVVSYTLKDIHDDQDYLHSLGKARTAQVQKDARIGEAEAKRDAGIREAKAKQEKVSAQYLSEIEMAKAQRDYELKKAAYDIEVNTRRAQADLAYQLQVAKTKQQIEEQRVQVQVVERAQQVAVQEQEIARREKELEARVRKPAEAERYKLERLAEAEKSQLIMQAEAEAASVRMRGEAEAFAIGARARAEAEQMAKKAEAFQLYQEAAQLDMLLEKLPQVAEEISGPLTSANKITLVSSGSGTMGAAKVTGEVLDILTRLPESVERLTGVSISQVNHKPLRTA

[2] = target: T1, recombinant His-tagged flotillin 1; test: SPR; His-tagged flotillin 1 or 2 captured on a Ni-NTA sensor chip (about 4000 RU), BIAcore T200; untagged MPP1 or its truncated mutants as analytes (at least five concentrations, 50-2000 nM), association 360 s, dissociation 600 s; HBS-T; global fit, 1:1 Langmuir model with mass transport step; both purified
[3] = target: T2, recombinant His-tagged flotillin 2 (UniProt Q14254 1-428); test: as above
T2 construct: flotillin 2; also called FL2
T2 sequence (looked up): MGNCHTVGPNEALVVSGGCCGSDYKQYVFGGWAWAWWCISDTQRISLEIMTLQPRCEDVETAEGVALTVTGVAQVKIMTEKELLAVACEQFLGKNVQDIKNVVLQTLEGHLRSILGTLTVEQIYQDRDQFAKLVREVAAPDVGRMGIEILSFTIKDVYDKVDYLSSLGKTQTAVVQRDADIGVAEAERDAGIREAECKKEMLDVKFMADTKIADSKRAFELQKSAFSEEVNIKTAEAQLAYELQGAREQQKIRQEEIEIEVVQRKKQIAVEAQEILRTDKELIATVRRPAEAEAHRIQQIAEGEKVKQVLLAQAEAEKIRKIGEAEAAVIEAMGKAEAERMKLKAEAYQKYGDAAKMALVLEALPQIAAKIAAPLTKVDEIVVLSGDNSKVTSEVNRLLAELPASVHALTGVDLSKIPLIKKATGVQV

Binder | binding [1] | binding [2] | binding [3]
full length recombinant MPP1 (protein, UniProt Q00013 1-466) MTLKASEGESGGSMHTALSDLYLEHLLQKRSRPEAVSHPLNTVTEDMYTNGSPAPGSPAQVKGQEVRKVRLIQFEKVTEEPMGITLKLNEKQSCTVARILHGGMIHRQGSLHVGDEILEINGTNVTNHSVDQLQKAMKETKGMISLKVIPNQQSRLPALQMFMRAQFDYDPKKDNLIPCKEAGLKFATGDIIQIINKDDSNWWQGRVEGSSKESAGLIPSPELQEWRVASMAQSAPSEAPSCSPFGKKKKYKDKYLAKHSSIFDQLDVVSYEEVVRLPAFKRKTLVLIGASGVGRSHIKNALLSQNPEKFVYPVPYTTRPPRKSEEDGKEYHFISTEEMTRNISANEFLEFGSYQGNMFGTKFETVHQIHKQNKIAILDIEPQTLKIVRTAELSPFIVFIAPTDQGTQTEALQQLQKDSEAIRSQYAHYFDLSLVNNGVDETLKKLQEAFDQACSSPQWVPVSWVY | binds |  | 
MPP1-Mut1 (residues 63–230) (domain or fragment, UniProt Q00013 63-230) GQEVRKVRLIQFEKVTEEPMGITLKLNEKQSCTVARILHGGMIHRQGSLHVGDEILEINGTNVTNHSVDQLQKAMKETKGMISLKVIPNQQSRLPALQMFMRAQFDYDPKKDNLIPCKEAGLKFATGDIIQIINKDDSNWWQGRVEGSSKESAGLIPSPELQEWRVAS |  | no binding (tested: 1600 nM) | no binding (tested: 1600 nM)
MPP1-Mut5 (residues 272–466) (domain or fragment, UniProt Q00013 272-466) EEVVRLPAFKRKTLVLIGASGVGRSHIKNALLSQNPEKFVYPVPYTTRPPRKSEEDGKEYHFISTEEMTRNISANEFLEFGSYQGNMFGTKFETVHQIHKQNKIAILDIEPQTLKIVRTAELSPFIVFIAPTDQGTQTEALQQLQKDSEAIRSQYAHYFDLSLVNNGVDETLKKLQEAFDQACSSPQWVPVSWVY |  | no binding (tested: 1600 nM) | no binding (tested: 1600 nM)
